Reference: the supplement of paper PMC12889115
The other results are listed elsewhere or left out. Values are raw readings; no control value is given beside them.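 Primary screen: polymyxin B was added at a level permeabilizing Salmonella outer membranes while sparing inner membranes. DMSO wells, both with and without polymyxin B, established maximum growth. Plate-to-plate variation meant each plate was ranked on its own, and the lowest-OD600 compounds were selected as hits.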

Tested on: Salmonella enterica serovar Typhimurium SL1344
Test: bacterial growth OD600 after 18 h with compound and polymyxin B; higher = more bacterial growth (less inhibition)
Conditions: 50 µM, Mueller-Hinton broth

Row | SMILES | bacterial growth OD600 (polymyxin B 0.75 µg/mL) | bacterial growth OD600 (polymyxin B 1 µg/mL)
1 | Fc1cccc(CN2CCOc3ccc(CN4CCC(Oc5cccnc5)CC4)cc3C2)c1F | 0.007 | –
2 | CCOC(=O)C1(Cc2cccc(OC)c2)CCCN(Cc2ccc(NC(C)=O)cc2)C1 (stereo unspecified) | – | 0.792
3 | O=C(Nc1ccnn1C1CCN(C(=O)c2cc3ccccc3o2)CC1)C1CCOC1 (stereo unspecified) | – | 0.861
4 | CC1(C)CC(NC(=O)c2coc(COc3cccc4cccnc34)n2)CCO1 (stereo unspecified) | 0.859 | –
5 | COCCCN1C(=O)CC(CC(=O)N2CCCCC2c2cccnc2)(c2ccccc2Cl)C1=O (stereo unspecified) | 0.515 | –
6 | Cc1cccc(N2CCC(C3CCN(Cc4cccnc4)CC3)C2)n1 (stereo unspecified) | 0.773 | –
7 | O=C(Nc1cccc(N2CCC(NCc3cccc(OC(F)(F)F)c3)CC2)c1)C1CC1 | 0.823 | –
8 | COc1ccc(CC(=O)NCC2CCCN(C(=O)c3ccc4c(c3)OCO4)C2)cc1 (stereo unspecified) | – | 0.935
9 | Cc1c(C(=O)N(C)Cc2cccc3ncccc23)sc2ncnc(NC[C@H]3C[C@@H]4C=C[C@H]3C4)c12 | 0.559 | –
10 | COC(=O)C(CCSC)NC(=O)c1ccc(OC2CCN(C(=O)C3CC3)CC2)cc1 (stereo unspecified) | – | 1.15
11 | COc1ccc2c(c1)OC(C)CN(CCNC(=O)c1cc(Cl)ccc1F)C2 (stereo unspecified) | 0.771 | –
12 | C(=C\c1ccccc1)/CN1CCCC(Nc2ccccc2)C1 (stereo unspecified) | – | 1.18
13 | COc1ccc(CNC(=O)CCC2CCCN(Cc3nccn3C)C2)c(OC)c1 (stereo unspecified) | – | 0.997
14 | COCCN1C(=O)CC(CC(=O)N2CCCC(OCc3ccccc3)C2)(c2cccc(OC)c2)C1=O (stereo unspecified) | 0.602 | –
15 | CC(=O)N1CCC(C(=O)N2CCc3[nH]nc(-c4ccc(Cl)cc4)c3C2)CC1 | 0.867 | –
16 | Cc1c(Cl)cccc1NC(=O)N1CCCC(CNC(=O)c2cccnc2)C1 (stereo unspecified) | 0.762 | –

Row | SMILES | bacterial growth OD600 (polymyxin B 0.75 µg/mL) | bacterial growth OD600 (polymyxin B 1 µg/mL)
17 | COc1ccccc1CN1CCC(C(=O)Nc2cccc(-c3cscn3)c2)CC1 | – | 0.939
18 | COc1cccc(CN2CCN(C(=O)CCC3(Cc4ccc(C)cc4)CCC(=O)N3)CC2=O)c1 (stereo unspecified) | 0.963 | –
19 | COc1cccc(CC(C2CCN(C(=O)CCc3ccccc3)CC2)N(C)C(=O)c2ccsc2)c1 (stereo unspecified) | 0.591 | –
20 | CCC(=O)N[C@@H]1c2ccccc2C2(CCN(C(=O)c3sccc3C)CC2)[C@H]1OCc1cccnc1 | 0.72 | –
21 | CC(=O)Nc1ccnn1C1CCN(Cc2ccc(-c3ccccc3)cc2)CC1 | 0.007 | –
22 | O=C(CC(F)(F)F)NC1CC(=O)N(Cc2ccccc2C(F)(F)F)C1 (stereo unspecified) | – | 0.791
23 | COc1cc(CN2CCC(n3nccc3NC(=O)c3ccccc3)CC2)cc2c1OCO2 | – | 0.921
24 | O=S(=O)(c1cccnc1)N1CCc2onc(-c3ccc(F)c(F)c3)c2C1 | 0.876 | –
25 | COc1cccc(CCC2CCCN(C(=O)c3n[nH]c4c3CCC4)C2)c1 (stereo unspecified) | 0.387 | –
26 | CN(Cc1ccc2nsnc2c1)C(=O)c1cc(COc2cccc(F)c2)[nH]n1 | – | 0.554
27 | COc1ccccc1CN1CCC(c2nc(-c3ccncc3)ncc2-c2cccc(C)c2)CC1 | 0.784 | –
28 | CC1(C)Cc2nc(N3CCC(O)CC3)ncc2C(NC2CCCC2)C1 (stereo unspecified) | 0.887 | –
29 | O=C(c1csnn1)N1CCc2[nH]nc(-c3ccc(-c4ccccc4)cc3)c2C1 | 0.561 | –
30 | O=C(c1ccc(NC2CC2)nc1)N1CCCCC1CCn1cccn1 (stereo unspecified) | – | 0.947
31 | Cc1nc2sccn2c1CN1CCC(C(Cc2ccccc2)N(C)C(=O)C2CCOCC2)CC1 (stereo unspecified) | 0.838 | –

Single values from the entries so far:
COc1ccccc1CN1CCC(c2nc(-c3ccncc3)ncc2-c2cccc(C)c2)CC1 – bacterial growth OD600 (polymyxin B 0.75 µg/mL): 0.784
O=S(=O)(c1cccnc1)N1CCc2onc(-c3ccc(F)c(F)c3)c2C1 – bacterial growth OD600 (polymyxin B 0.75 µg/mL): 0.876
